Measured values as given in publication doi:10.1101/2021.12.17.473100.
No constants are given. Whether binding was seen depends on the method and setting. In cells and extracts the contact can be indirect. Some entries that bind do so weakly or less than the wild type.

Sequences of proteins named here, by UniProt entry; tags and fusion partners are left off.
UniProt P20263: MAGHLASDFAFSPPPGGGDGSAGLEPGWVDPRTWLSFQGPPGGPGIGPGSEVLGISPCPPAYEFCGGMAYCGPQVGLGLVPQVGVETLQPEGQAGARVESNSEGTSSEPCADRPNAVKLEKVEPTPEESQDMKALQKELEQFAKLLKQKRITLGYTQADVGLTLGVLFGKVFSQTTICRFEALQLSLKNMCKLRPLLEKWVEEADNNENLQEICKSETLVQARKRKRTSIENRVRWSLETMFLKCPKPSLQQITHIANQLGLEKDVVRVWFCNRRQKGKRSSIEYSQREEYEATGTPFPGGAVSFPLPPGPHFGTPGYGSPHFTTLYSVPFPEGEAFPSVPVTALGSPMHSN

Molecular target: OCT4 (mouse (endogenous in mouse ESCs)) (UniProt P20263)
Test: co-IP

binding: binds
B1: ARRDC3 (protein, UniProt Q7TPQ9 1-414)
chain: MVLGKVKSLTISFDCLNDSNVPVYSSGDTVSGRVNLEVTGEIRVKSLKIHARGHAKVRWTESRNAGSNTAYTQNYTEEVEYFNHKDILIGHERDDDNSEEGFHTIHSGRHEYAFSFELPQTPLATSFEGRHGSVRYWVKAELHRPWLLPVKLKKEFTVFEHIDINTPSLLSPQAGTKEKTLCCWFCTSGPISLSAKIERKGYTPGESIQIFAEIENCSSRMVVPKAAIYQTQAFYAKGKMKEVKQLVANLRGESLSSGKTETWNGKLLKIPPVSPSILDCSIIRVEYSLMVYVDIPGAMDLLLSLPLVIGTIPLHPFGSRTSSVSSQCSMSMNWLALALPERPEAPPSYAEVVTEEQRRNNLAPVGACDDFERALQGPLFAYIQEFRFLPPPLYSEIDPNPDQSSEDRPSCPSR
